What all share (test): EMSA
A general note: In EMSA bound probe runs differently from free probe, usually more slowly.

The test system of data set [1] is Motif_15 protein L0F81_11155. The following applies: EMSA: 20 mM Tris-HCl pH 7.5, 250 mM NaCl, 5% glycerol, 2 uL of 1 uM FAM-DNA (labeled:unlabeled strand 1:4) + 2 uL of ~10 uM protein in 20 uL, 37 C, 30 min, recombinant protein, protein details: His (pET-28a, Ni column), label: 5'FAM on strand 1.
The test system of data set [2] is Motif_2 protein AR1Y2_1945. The following applies: EMSA: 20 mM Tris-HCl pH 7.5, 250 mM NaCl, 5% glycerol; 2 uL of 1 uM FAM-DNA (labeled:unlabeled strand 1:4) + 2 uL of ~10 uM protein in 20 uL; 37 C, 30 min; recombinant protein; protein details: His (pET-28a, Ni column); label: 5'FAM on strand 1.
For data set [3], the system named is Motif_79 protein CP49_24200. The following applies: EMSA: 20 mM Tris-HCl pH 7.5, 250 mM NaCl, 5% glycerol, 2 uL of 1 uM FAM-DNA (labeled:unlabeled strand 1:4) + 2 uL of ~10 uM protein in 20 uL, 37 C, 30 min, recombinant protein, protein details: His (pET-28a, Ni column), label: 5'FAM on strand 1.
For data set [4], the system named is Motif_209 protein DRF58_00335. The following applies: EMSA: 20 mM Tris-HCl pH 7.5, 250 mM NaCl, 5% glycerol, 2 uL of 1 uM FAM-DNA (labeled:unlabeled strand 1:4) + 2 uL of ~10 uM protein in 20 uL, 37 C, 30 min, recombinant protein, protein details: His (pET-28a, Ni column), label: 5'FAM on strand 1.
In data set [5] the test system is Motif_177 protein G6048_13090. The following applies: EMSA: 20 mM Tris-HCl pH 7.5, 250 mM NaCl, 5% glycerol, 2 uL of 1 uM FAM-DNA (labeled:unlabeled strand 1:4) + 2 uL of ~10 uM protein in 20 uL, 37 C, 30 min, recombinant protein, protein details: His (pET-28a, Ni column), label: 5'FAM on strand 1.
Data set [6] concerns Motif_102 protein Mesau_05682. To be noted: EMSA: 20 mM Tris-HCl pH 7.5, 250 mM NaCl, 5% glycerol, 2 uL of 1 uM FAM-DNA (labeled:unlabeled strand 1:4) + 2 uL of ~10 uM protein in 20 uL, 37 C, 30 min, recombinant protein, protein details: His (pET-28a, Ni column), label: 5'FAM on strand 1.
The test system of data set [7] is Motif_210 protein C3L50_11205. To be noted: EMSA: 20 mM Tris-HCl pH 7.5, 250 mM NaCl, 5% glycerol, 2 uL of 1 uM FAM-DNA (labeled:unlabeled strand 1:4) + 2 uL of ~10 uM protein in 20 uL, 37 C, 30 min, recombinant protein, protein details: His (pET-28a, Ni column), label: 5'FAM on strand 1.
The subject of data set [8] is Motif_24 protein G4P54_09295. To be noted: EMSA: 20 mM Tris-HCl pH 7.5, 250 mM NaCl, 5% glycerol, 2 uL of 1 uM FAM-DNA (labeled:unlabeled strand 1:4) + 2 uL of ~10 uM protein in 20 uL, 37 C, 30 min, recombinant protein, protein details: His (pET-28a, Ni column), label: 5'FAM on strand 1.
Data set [9] deals with T1, Motif_38 protein HW450_07255 (UniProt A0A7G5FC37).
T1 sequence (looked up, limits assumed): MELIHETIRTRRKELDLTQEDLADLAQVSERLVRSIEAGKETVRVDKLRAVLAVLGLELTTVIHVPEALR
The following applies: weakened or abolished; EMSA: 20 mM Tris-HCl pH 7.5, 250 mM NaCl, 5% glycerol; 2 uL of 1 uM FAM-DNA (labeled:unlabeled strand 1:4) + 2 uL of ~10 uM protein in 20 uL; 37 C, 30 min; recombinant protein; protein details: His (pET-28a, Ni column); label: 5'FAM on strand 1.

Data set [10] concerns Motif_49 protein Dd1591_4245. To be noted: EMSA: 20 mM Tris-HCl pH 7.5, 250 mM NaCl, 5% glycerol; 2 uL of 1 uM FAM-DNA (labeled:unlabeled strand 1:4) + 2 uL of ~10 uM protein in 20 uL; 37 C, 30 min; recombinant protein; protein details: His (pET-28a, Ni column); label: 5'FAM on strand 1.

The exact form of at least one protein or probe is not confirmed. For some of these results: No signal at the amounts used counts as a negative. For some of these results: The comparison behind a weaker result is the experiment's own reference, which may not be listed here. For some of these results: At least one verdict was read from the data and is not stated in words by the source. For some of these results: Where a protein sequence is shown, tags need not be part of it.

As for “ACTCTCTATGCGTTTCACGCATACCCGGT (double strand) [15-WT]”, the binding result is on record as “binds” in data set [1] and “no binding” in data set [2].

For the sequence “TCGAAATAATCTGTTTACGTATTACCCACT (double strand) [Mot79-mut1]”, in [3] (weakened or abolished), the binding result was “binds more weakly”.

As for “TCACAATTAGCAAACGTTTGCTAAATTTTT (double strand) [Mot209-mut1]”, the binding result in [4] (weakened or abolished) is given as “binds more weakly”.

Take “GCAAATAGTGCAGAGGTCTGCACTGACATG (double strand) [Mot177-WT]”: the values for the binding result in data set [5] and in [2] were “binds” and “no binding”, respectively.

With “TCACAATTAGCGAACGTTCGCTAAATTTTT (double strand) [Mot209-WT]”, the binding result is “no binding” in data set [2] and “binds” in [4].

As to “ATGAAATATAGTCTTCGTGCTATATAACGC (double strand) [Mot102-mut1]”, in [6] (weakened or abolished), the binding result is on record as “binds more weakly”.

With “CGTAAACTCTACGGAGCGTTGATTGTGTT (double strand) [Mot2-WT]”, the binding result in data set [2] is “no binding”.

Regarding “ATGAAATGTAGTCTTCGTGCTACATAACGC (double strand) [Mot102-WT]”, the binding result is recorded as “binds” in [6], “no binding” in data set [2], “binds” in data set [7] and “binds” in [8].

As to “AATAAATCGGCACAATCGTGCCGATTTTGG (double strand) [Mot38-WT]”, the binding result in data set [2] was “no binding”; in data set [7] it was “binds”.

On to “AATAAATCGACACAATCGTGTCGATTTTGG (double strand) [Mot38-mut1]”, for which the binding result in data set [9] is listed as “binds more weakly”.

On to “TTATAATATAAAGTACACTTTATGTTAAGG (double strand) [Mot24-mut1]”, for which the binding result in [8] (weakened or abolished) was “binds more weakly”.

As to “TCTAAATTACTGCTATAGCAGTAAAAAAAT (double strand) [Mot210-WT]”, the binding result in data set [2] is listed as “no binding”; in data set [7], “binds”; in data set [10], “binds more weakly”.

With “TCGAAATGATCTGTTTACGTATCACCCACT (double strand) [Mot79-WT]”, the binding result in data set [2] is on record as “no binding”; in [8], “binds”; in data set [3], “binds”.

With “TTCTCTTACCCGCTATAGGGGATAAATGTT (double strand) [Mot49-WT]”, the binding result in data set [7] is “binds more weakly”; in data set [10] it was “binds”.

With “ACTCTCTACGCGTTTCACGCGTACCCGGT (double strand) [15-mut1]”, in data set [1] (weakened or abolished), the binding result is listed as “binds more weakly”.

As to “TCTAAATTATTGCTATAGCAATAAAAAAAT (double strand) [Mot210-mut1]”, the binding result in [7] (weakened or abolished) was “binds more weakly”.

In the case of “GCAAATAGTACAGAGGTCTGTACTGACATG (double strand) [Mot177-mut1]”, the binding result in data set [5] (weakened or abolished) was “binds more weakly”.

Turning to “TTATAATGTAAAGTACACTTTACGTTAAGG (double strand) [Mot24-WT]”, the binding result in data set [2] is recorded as “no binding”; in [8] it was “binds”.
